Publication PMC6199744, “Development of Chemical Proteomics for the Folateome and Analysis of the Kinetoplastid Folateome” (ACS Infectious Diseases, 2018)
The source gives many values for each of these; only a part stands here.

Test system: L. major lysate proteins
Assay: Multitargeted bead mixture chemoproteomics, single concentration competition, proteome-wide
Assay type: binding
Settings: for fold change: vehicle control = 1

`CCCCCCOc1cccc(Cc2cnc(N)nc2N)c1` [compound 2] was tested, and the fold change (LMJF.29.2360 ASPARTYL AMINOPEPTIDASE, PUTATIVE) was 0.87, the fold change (LMJF.30.0580 HYPOTHETICAL PROTEIN, CONSERVED) was 0.96 and the fold change (LMJF.30.1040 HYPOTHETICAL PROTEIN, CONSERVED) was 0.83. For the same compound, the fold change (LMJF.30.3380 PAS-DOMAIN CONTAINING PHOSPHOGLYCERATE KINASE, PUTATIVE) was 0.91, the fold change (LMJF.30.3530 HYPOTHETICAL PROTEIN, CONSERVED) was 0.83 and the fold change (LMJF.30.3570 ZINC FINGER-DOMAIN PROTEIN, PUTATIVE) was 1.15. The fold change (LMJF.31.1110 HY[…], CONSERVED) was 0.99, the fold change (LMJF.31.2640 2-OXOGLUTARATE DEHYDROGENASE, E3 COMPONENT, […]-LIKE PROTEIN) was 1.06 and the fold change (LMJF.32.0450 AF467951_1 ribosomal protein S2) was 1.55. For the same compound, the fold change (LMJF.33.3270 DELTA-12 FATTY ACID DESATURASE) was 1.13, the fold change (LMJF.34.0010 HY[…], CONSERVED) was 1.04 and the fold change (LMJF.34.2610 ATP-DEPENDENT DNA HELICASE, PUTATIVE) was 0.87. For the same compound, the fold change (LMJF.34.4620 HY[…], CONSERVED) was 1.04, the fold change (LMJF.35.2150 HY[…], CONSERVED) was 1.06 and the fold change (LMJF.35.2980 CHAPERONE PROTEIN DNAJ, PUTATIVE) was 0.83. The fold change (LMJF.35.4300 HYPOTHETICAL PROTEIN, CONSERVED) was 0.81, the fold change (LMJF.35.4880 HY[…], CONSERVED) was 1.16 and the fold change (LMJF.36.0250 EIF3-INTERACTING PROTEIN-LIKE PROTEIN) was 0.95. For the same compound, the fold change (LMJF.36.1940 INOSINE-GUANOSINE TRANSPORTER) was 1.04, the fold change (protein AF312586_1 IRON […] B1 (AF312583_1 iron […] B2)) was 1.11 and the fold change (protein CLM00008612.1 UNNAMED PROTEIN PRODUCT) was 0.85. The fold change (protein LINJ.01.0790 […] 4A, PUTATIVE) was 1.26, the fold change (protein LINJ.03.0240 RIBOSOMAL PROTEIN L38, PUTATIVE) was 2.01 and the “fold change vs vehicle control” value (protein LINJ.04.0630 HY[…], CONSERVED) was 1.03. For the same compound, the fold change (protein LINJ.05.0070 DYNEIN LIGHT CHAIN, PUTATIVE) was 0.9, the fold change (protein LINJ.07.0210 CYTOCHROME C1, HEME PROTEIN, MIT[…], PUTATIVE) was 1.27 and the “fold change vs vehicle control” value (protein LINJ.08.1020 STRESS-INDUCED PROTEIN STI1) was 1.19. For the same compound, the fold change (protein LINJ.16.1510 PAR[…] PROTEIN 2C) was 1.08, the fold change (protein LINJ.19.0140 PROTEIN KINASE, PUTATIVE,MITOGEN-ACTIVATED PROTEIN KINASE, PUTATIVE) was 1.44 and the fold change (protein LINJ.23.0860 3-KETOACYL-COA THIOLASE, PUTATIVE) was 1.1. The fold change (protein LINJ.24.2300 60S RIBOSOMAL PROTEIN L12, PUTATIVE) was 1.33, the fold change (protein LINJ.25.1460 GTP-BINDING PROTEIN, PUTATIVE) was 1.07 and the fold change (protein LINJ.25.2230 SUCCINYL-COA […] SUBUNIT, PUTATIVE) was 1.25. It also gave a fold change (protein LINJ.26.0590 10 KDA HEAT SHOCK PROTEIN, PUTATIVE) of 1.07, a fold change (protein LINJ.26.0840 40S RIBOSOMAL PROTEIN S16, PUTATIVE) of 1.19 and a fold change (protein LINJ.28.1310 GLUCOSE-REGULATED PROTEIN 78, PUTATIVE) of 1.15. For the same compound, the fold change (protein LINJ.28.1850 […]-ATP-ASE SUBUNIT 2, PUTATIVE) was 1.26, the fold change (protein LINJ.28.2280 DYNEIN LIGHT CHAIN LC6, FLAGELLAR OUTER ARM, PUTATIVE) was 1.2 and the fold change (protein LINJ.31.0710 HY[…], CONSERVED) was 1.15. The fold change (protein LINJ.32.0240 DYNEIN LIGHT CHAIN, FLAGELLAR OUTER ARM, PUTATIVE) was 1.3, the “fold change vs vehicle control” value (protein LINJ.32.2960 PROTEASOME REGULATORY NON-ATP-ASE SUBUNIT, PUTATIVE) was 1.1 and the fold change (protein LINJ.32.3230 PROTEIN PHOSPHATASE 2A CATALYTIC SUBUNIT, PUTATIVE) was 1.17. The fold change (protein LINJ.33.0350 HEAT SHOCK PROTEIN 83-1) was 1.12, the fold change (protein LINJ.35.2250 kinetoplastid membrane protein 11) was 0.89 and the fold change (protein LINJ.35.3840 60S RIBOSOMAL PROTEIN L23, PUTATIVE) was 1.19. For the same compound, the “fold change vs vehicle control” value (protein LINJ.35.4200 POLY(A)-BINDING PROTEIN 2,POLY(A) BINDING PROTEIN, PUTATIVE) was 1.11, the fold change (protein LMJF.01.0320 POLY(A) EXPORT PROTEIN, PUTATIVE) was 1.21 and the fold change (protein LMJF.01.0650 MIT[…] BETA SUBUNIT, PUTATIVE) was 1. The fold change (protein LMJF.02.0450 VOLTAGE-DEPENDENT ANION-SELECTIVE CHANNEL, PUTATIVE) was 1.2, the fold change (protein LMJF.03.0200 DELTA-1-PYRROLINE-5-CARBOXYLATE DEHYDROGENASE, PUTATIVE) was 0.99 and the fold change (protein LMJF.03.0980 […] 2 ALPHA SUBUNIT, PUTATIVE) was 1.08. The “fold change vs vehicle control” value (protein LMJF.04.1230 actin) was 1.17, the “fold change vs vehicle control” value (protein LMJF.07.0220 HYPOTHETICAL PROTEIN, CONSERVED) was 0.87 and the fold change (protein LMJF.07.0270 […] DEACETYLASE-LIKE PROTEIN) was 1.02. It also gave a fold change (protein LMJF.07.0340 ATP-DEPENDENT DEAD/H RNA HELICASE, PUTATIVE) of 1.1, a fold change (protein LMJF.07.0640 HYPOTHETICAL PROTEIN, CONSERVED) of 0.9 and a fold change (protein LMJF.07.1000 RNA BINDING PROTEIN-LIKE PROTEIN) of 1.3. The fold change (protein LMJF.07.1140 PEPTIDE […] REDUCTASE-LIKE) was 1.06, the fold change (protein LMJF.08.0320 MITOCHONDRIAL ASSOCIATED RIBONUCLEASE, PUTATIVE) was 0.93 and the fold change (protein LMJF.09.0970 […]-1 GAMMA) was 1.09. It also gave a fold change (protein LMJF.10.0210 NUCLEOLAR PROTEIN, PUTATIVE) of 1.12, a fold change (protein LMJF.11.0220 PTERIN-4-ALPHA-CARBINOLAMINE DEHYDRATASE, PUTATIVE) of 1.09 and a fold change (protein LMJF.11.0350 14-3-3 PROTEIN, PUTATIVE) of 1.13.
